Article doi:10.1101/2025.02.28.640727
These are yes or no findings as the source states them, for the method shown. Binding seen in cells or lysates may run through a third protein. A result given as binding can be weak or reduced; the word gives no strength. For some of these results: Sequences can lack the tags named with a protein. One block for each binder: values may come before it.

By UniProt entry, the sequences of proteins in these tests, tags left out. Where a name states a change or a piece, a line headed by the entry shows the natural chain unless it says otherwise.
UniProt Q9FMD7: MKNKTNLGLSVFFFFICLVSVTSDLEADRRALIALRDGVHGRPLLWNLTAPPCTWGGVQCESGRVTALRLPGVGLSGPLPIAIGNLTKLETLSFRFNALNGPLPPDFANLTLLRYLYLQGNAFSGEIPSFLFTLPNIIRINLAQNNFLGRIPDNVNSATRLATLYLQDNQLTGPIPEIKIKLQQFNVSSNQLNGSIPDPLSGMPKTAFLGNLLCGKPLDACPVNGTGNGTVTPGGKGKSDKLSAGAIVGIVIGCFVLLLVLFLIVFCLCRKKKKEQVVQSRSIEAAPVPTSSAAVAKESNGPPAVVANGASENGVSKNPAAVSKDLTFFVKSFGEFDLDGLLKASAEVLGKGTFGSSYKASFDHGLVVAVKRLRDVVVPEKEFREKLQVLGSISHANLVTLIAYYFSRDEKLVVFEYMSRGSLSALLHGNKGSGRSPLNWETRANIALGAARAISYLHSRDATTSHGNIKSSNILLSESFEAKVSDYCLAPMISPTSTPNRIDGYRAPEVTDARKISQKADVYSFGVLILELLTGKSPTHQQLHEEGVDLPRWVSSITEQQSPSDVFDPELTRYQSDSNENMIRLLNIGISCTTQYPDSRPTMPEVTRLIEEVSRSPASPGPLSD

Assays:
[1] = molecular target: TMK INTeractor 2 (TINT2), p35S::TINT2-SCFP3A^C (Arabidopsis thaliana); test: split reporter
[2] = molecular target: TMK INTeractor 4 (TINT4), p35S::TINT4-SCFP3A^C (Arabidopsis thaliana); test: split reporter
[3] = molecular target: TMK INTeractor 7 (TINT7), pUBQ10::TINT7-3xHA (Arabidopsis thaliana); test: co-IP
[4] = molecular target: TMK INTeractor 1 (TINT1; LRR1), pUBQ10::TINT1-3xHA (Arabidopsis thaliana) (UniProt Q9FMD7); test: co-IP
[5] = molecular target: TMK INTeractor 4 (TINT4), pUBQ10::TINT4-3xHA (Arabidopsis thaliana); test: co-IP
[6] = molecular target: TMK INTeractor 2 (TINT2), pUBQ10::TINT2-3xHA (Arabidopsis thaliana); test: co-IP
[7] = molecular target: TMK INTeractor 5 (TINT5), pUBQ10::TINT5-3xHA (Arabidopsis thaliana); test: co-IP

- binding [1]: binds
- binding [2]: binds
B1: Transmembrane Kinase 1 (TMK1), p35S::TMK1-SCFP3A^N (receptor, UniProt P43298 24-942)
chain: DSDGDLSAMLSLKKSLNPPSSFGWSDPDPCKWTHIVCTGTKRVTRIQIGHSGLQGTLSPDLRNLSELERLELQWNNISGPVPSLSGLASLQVLMLSNNNFDSIPSDVFQGLTSLQSVEIDNNPFKSWEIPESLRNASALQNFSANSANVSGSLPGFLGPDEFPGLSILHLAFNNLEGELPMSLAGSQVQSLWLNGQKLTGDITVLQNMTGLKEVWLHSNKFSGPLPDFSGLKELESLSLRDNSFTGPVPASLLSLESLKVVNLTNNHLQGPVPVFKSSVSVDLDKDSNSFCLSSPGECDPRVKSLLLIASSFDYPPRLAESWKGNDPCTNWIGIACSNGNITVISLEKMELTGTISPEFGAIKSLQRIILGINNLTGMIPQELTTLPNLKTLDVSSNKLFGKVPGFRSNVVVNTNGNPDIGKDKSSLSSPGSSSPSGGSGSGINGDKDRRGMKSSTFIGIIVGSVLGGLLSIFLIGLLVFCWYKKRQKRFSGSESSNAVVVHPRHSGSDNESVKITVAGSSVSVGGISDTYTLPGTSEVGDNIQMVEAGNMLISIQVLRSVTNNFSSDNILGSGGFGVVYKGELHDGTKIAVKRMENGVIAGKGFAEFKSEIAVLTKVRHRHLVTLLGYCLDGNEKLLVYEYMPQGTLSRHLFEWSEEGLKPLLWKQRLTLALDVARGVEYLHGLAHQSFIHRDLKPSNILLGDDMRAKVADFGLVRLAPEGKGSIETRIAGTFGYLAPEYAVTGRVTTKVDVYSFGVILMELITGRKSLDESQPEESIHLVSWFKRMYINKEASFKKAIDTTIDLDEETLASVHTVAELAGHCCAREPYQRPDMGHAVNILSSLVELWKPSDQNPEDIYGIDLDMSLPQALKKWQAYEGRSDLESSTSSLLPSLDNTQMSIPTRPYGFAESFTSVDGR

- binding [3]: binds
B2: Transmembrane Kinase 1 (TMK1), FLAG-tagged (receptor, UniProt P43298 24-942)
chain: B1 chain

- binding [4]: binds
- binding [5]: binds
- binding [6]: binds
- binding [7]: binds
B3: Transmembrane Kinase 1 (TMK1), endogenous (receptor, UniProt P43298 24-942)
chain: B1 chain
